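Mixed E. coli culture in which the wild-type GFP-labelled strain's fluorescence is read after 24 h, reported as change in activity. Percent-style change in GFP activity at 50 µM; values more negative mean stronger inhibition. Active needs green reporter loss at least twice the red loss with limited overall growth inhibition; inconclusive means no clear call.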

Common to all entries: at 50 µM (top of the series). Every entry below has the call inconclusive. These entries are mostly ones the record files as inconclusive; other results of the assay are not listed here.

* CSc1ccccc1OCc1cc(C(=O)N[C@H]2CCCCNC2=O)no1 | activity change -19.34
* Cc1cnc(NC(=O)Cc2c[nH]c3ccccc23)s1 | activity change -25.41
* Cc1ccc(NC(=O)C[n+]2cc(-c3ccccc3)n3c2CCC3)cc1 | activity change 71.93
* Cc1n[nH]c(C)c1S(=O)(=O)N1CCCC(C(=O)Nc2ccc(Br)cc2)C1 (centres undefined) | activity change 9.336
* CC1CCCC(NC(=O)COC(=O)[C@@H]2CC(O)CN2S(=O)(=O)c2ccc3c(c2)OCCO3)C1C (some centres undefined) | activity change 1.903
* O=C(NC1CC1)c1cc2cc3ccccc3nc2s1 | activity change -36.67
* CCN(C(=O)CSc1cc(C)c2ccc(OC)cc2n1)C1CCS(=O)(=O)C1 (centres undefined) | activity change -21.07
* COc1ccccc1Cn1c(=S)[nH]c2ccccc2c1=O | activity change -32.5
* NC(=O)c1cccnc1Oc1ccc(Cl)cc1Cl | activity change -26.42
* Cc1cccc(NC(=O)CC23CC4CC(C2)CC(n2nnc(C)n2)(C4)C3)c1 | activity change -12.61
* CN(C)CCCN(C(=O)CCOc1ccccc1)c1nc2c(F)cccc2s1 | activity change -11.12
* CCn1ncc(Br)c1C(=O)Nc1ccc2c(c1)OCCO2 | activity change 11.34
* CCOc1ccc(CN(C)C(=O)c2ccc(NS(=O)(=O)c3ccc4[nH]c(=O)[nH]c4c3)cc2)cc1 | activity change -2.938
* O=C(CSc1nc(C2CCCCC2)nc2ccccc12)N1CCCC1 | activity change -35.44
* O=C(CN1CCc2ccccc2C1)Nc1ccc(F)cc1F | activity change 43.91
* COc1ccc(NC(=O)CSc2nnc(Cc3ccccc3)o2)c(OC)c1 | activity change -11.2
* CSc1cccc(NC(=O)CCc2ccccc2)c1 | activity change -9.263
* Cc1ccc(CSCC(=O)Nc2ccc3c(c2)OCO3)cc1 | activity change -43.94
* CN(c1ccccc1)S(=O)(=O)c1cccc(C(=O)OCC(=O)NCc2ccco2)c1 | activity change -19.06
* CCCC#C/C(CCC)=C1\c2ccccc2C(=O)N1c1ccccc1 | activity change 14.3
* COc1cccc(C2c3cc4c(cc3OC(N3CCCC3)C2C)OCO4)c1O (centres undefined) | activity change -22.46
* N#Cc1ccsc1NC(=O)CSc1nnc(NC2CC2)s1 | activity change -9.949
* COc1cc(C(F)(F)F)c(C(=O)N(C)Cc2ccc(Cl)c(Cl)c2)cn1 | activity change -7.204
* COc1ccc(-c2nnc(COc3ccc(Br)cc3C)o2)cc1 | activity change -16.68
* CCN(Cc1ccccc1)C(=O)COC(=O)c1cc(Cl)nc(Cl)c1 | activity change 21.92
* Cc1ccc(NC(=O)c2ccccc2F)c(NC(=O)c2ccccc2F)c1 | activity change 1.018
* O=C(CC1SC(=O)N(Cc2ccccc2Cl)C1=O)Nc1nccs1 (centres undefined) | activity change 3.845
* COC(=O)[C@]1(Sc2ccc(C)cc2)CC(=O)N[C@@H]1c1ccccc1 | activity change -5.536
* CCOC(=O)c1cnc2ccccc2c1NCc1ccco1 | activity change -28.24
* Cc1c(Cc2ccccc2)sc(NC(=O)C(C)(C)C)c1C(N)=O | activity change -32.91

For reference, 2 entries once more:

Result for COc1ccc(-c2nnc(COc3ccc(Br)cc3C)o2)cc1 was activity change -16.68.
Result for CCCC#C/C(CCC)=C1\c2ccccc2C(=O)N1c1ccccc1 was activity change 14.3.

Data taken from PubChem BioAssay AID977630, deposited by Broad Institute (2014).